The values that follow come from publication PMC11618363.

By UniProt entry, the sequences of proteins in these tests, tags left out. Residues count along the entry.
UniProt Q8R4B8: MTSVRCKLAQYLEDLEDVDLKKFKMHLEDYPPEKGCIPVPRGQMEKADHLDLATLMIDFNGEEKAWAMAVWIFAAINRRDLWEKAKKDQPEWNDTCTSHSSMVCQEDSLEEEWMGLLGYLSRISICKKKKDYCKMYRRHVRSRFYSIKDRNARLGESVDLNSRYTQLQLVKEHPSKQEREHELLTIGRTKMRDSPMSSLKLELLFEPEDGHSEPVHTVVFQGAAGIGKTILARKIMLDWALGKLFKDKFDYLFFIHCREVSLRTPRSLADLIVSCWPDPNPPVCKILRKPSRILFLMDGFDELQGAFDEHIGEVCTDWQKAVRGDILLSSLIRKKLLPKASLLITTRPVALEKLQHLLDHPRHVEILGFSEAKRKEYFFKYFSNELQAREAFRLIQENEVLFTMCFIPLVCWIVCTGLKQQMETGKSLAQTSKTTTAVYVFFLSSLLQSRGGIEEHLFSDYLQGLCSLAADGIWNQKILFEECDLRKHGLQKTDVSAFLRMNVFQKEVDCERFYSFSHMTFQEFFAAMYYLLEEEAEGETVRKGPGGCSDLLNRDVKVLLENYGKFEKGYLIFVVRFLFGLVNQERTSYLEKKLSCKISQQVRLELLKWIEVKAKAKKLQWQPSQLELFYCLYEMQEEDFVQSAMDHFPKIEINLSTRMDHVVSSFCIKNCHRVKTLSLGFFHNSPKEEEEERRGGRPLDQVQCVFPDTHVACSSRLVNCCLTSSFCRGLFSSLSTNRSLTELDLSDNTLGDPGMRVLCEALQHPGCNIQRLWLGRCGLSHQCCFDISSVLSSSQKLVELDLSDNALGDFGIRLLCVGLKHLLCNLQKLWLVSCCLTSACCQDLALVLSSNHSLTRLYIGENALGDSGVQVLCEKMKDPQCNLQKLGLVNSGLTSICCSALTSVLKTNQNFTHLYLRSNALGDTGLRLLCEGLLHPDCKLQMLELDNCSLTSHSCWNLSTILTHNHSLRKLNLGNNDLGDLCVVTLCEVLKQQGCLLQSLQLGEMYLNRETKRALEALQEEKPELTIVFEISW
UniProt P13020, residues 26-780: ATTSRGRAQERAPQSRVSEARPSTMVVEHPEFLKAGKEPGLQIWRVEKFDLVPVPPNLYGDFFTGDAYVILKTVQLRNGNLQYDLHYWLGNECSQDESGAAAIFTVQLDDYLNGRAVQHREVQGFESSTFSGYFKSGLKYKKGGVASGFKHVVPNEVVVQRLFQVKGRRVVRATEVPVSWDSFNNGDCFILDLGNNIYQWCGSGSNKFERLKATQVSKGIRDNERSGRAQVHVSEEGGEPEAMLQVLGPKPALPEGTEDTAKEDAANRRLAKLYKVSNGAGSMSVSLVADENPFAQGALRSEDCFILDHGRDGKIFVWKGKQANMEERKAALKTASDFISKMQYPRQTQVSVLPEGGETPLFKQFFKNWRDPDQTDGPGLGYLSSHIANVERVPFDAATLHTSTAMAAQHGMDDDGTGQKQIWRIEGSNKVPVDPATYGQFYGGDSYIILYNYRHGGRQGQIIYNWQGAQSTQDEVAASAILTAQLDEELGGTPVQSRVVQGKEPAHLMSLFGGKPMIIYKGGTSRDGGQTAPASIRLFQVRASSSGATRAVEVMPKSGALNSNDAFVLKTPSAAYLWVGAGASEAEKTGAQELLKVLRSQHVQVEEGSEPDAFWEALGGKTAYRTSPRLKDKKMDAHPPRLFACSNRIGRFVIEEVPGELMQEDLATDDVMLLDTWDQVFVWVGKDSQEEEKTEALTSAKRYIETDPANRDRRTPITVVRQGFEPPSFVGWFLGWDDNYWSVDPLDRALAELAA

Like-named read-outs stand apart in the source and are kept apart here. These are yes or no findings as the source states them, for the method shown. For some of these results: In cells and extracts the contact can be indirect. Some results given as binding are weak or reduced against the parent protein; the word gives no strength. For some of these results: Where a sequence is shown, tags or fusion partners need not be part of it.

Experiment [1] deals with Flag-NLRP3 (UniProt Q8R4B8). The experiment in a line: co-IP; HEK293T transiently transfected for 48 h; lysate in 50 mM HEPES pH 7.0, 250 mM NaCl, 1 mM EDTA, 0.2% Nonidet P-40; overnight at 4 °C with anti-Flag M2 affinity gel or anti-c-Myc agarose; immunoblot; in some experiments varying amounts of cGSN or MAVS plasmid, or BAPTA-AM (5, 20, 40 μM) during transfection.
Experiment [2] has as its target Flag-NLRP3 (UniProt Q8R4B8). The description is as above. This is another data set of the same source.
Experiment [3] concerns the target NLRP3 (mouse (endogenous in BMDMs, J774.1 cells, peritoneal resident macrophages)) (UniProt Q8R4B8). Description: proximity ligation; in situ PLA (Duolink) on fixed, permeabilised cells primed with LPS 100 ng/mL for 3 h; BMDMs, control and Gsn-KO J774.1 cells, Gsn fl/fl and Gsn ΔMye peritoneal resident macrophages.
The target is the same in experiment [4]. The experiment in a line: SEC; BMDM lysate (LPS-primed, with or without nigericin 5 μM, 45 min) fractionated on Superdex 200 prep grade in 20 mM sodium phosphate, 150 mM NaCl, pH 7.0; fractions immunoblotted.

Turning to Myc-pGSN (from UniProt P13020 26-780), the binding entry in the experiment with Flag-NLRP3 [1] is recorded as “binds”.

B1: MAVS-His (protein, UniProt Q8VCF0 1-503)
chain: MTFAEDKTYKYIRDNHSKFCCVDVLEILPYLSCLTASDQDRLRASYRQIGNRDTLWGLFNNLQRRPGWVEVFIRALQICELPGLADQVTRVYQSYLPPGTSLRSLEPLQLPDFPAAVSGPSAFAPGHNIPDHGLRETPSCPKPVQDTQPPESPVENSEQLLQTNSGAVARMSGGSLIPSPNQQALSPQPSREHQEQEPELGGAHAANVASVPIATYGPVSPTVSFQPLPRTALRTNLLSGVTVSALSADTSLSSSSTGSAFAKGAGDQAKAATCFSTTLTNSVTTSSVPSPRLVPVKTMSSKLPLSSKSTAAMTSTVLTNTAPSKLPSNSVYAGTVPSRVPASVAKAPANTIPPERNSKQAKETPEGPATKVTTGGNQTGPNSSIRSLHSGPEMSKPGVLVSQLDEPFSACSVDLAISPSSSLVSEPNHGPEENEYSSFRIQVDESPSADLLGSPEPLATQQPQEEEEHCASSMPWAKWLGATSALLAVFLAVMLYRSRRLAQ
In the case of B1, the binding entry with Flag-NLRP3 [2] is “binds”.

B2: MAVS (protein, UniProt Q8VCF0 1-503)
chain: B1 chain
For B2, the binding entry in experiment [3] was “binds”.

B3: pro-caspase-1 (protein, UniProt P29452 1-402)
chain: MADKILRAKRKQFINSVSIGTINGLLDELLEKRVLNQEEMDKIKLANITAMDKARDLCDHVSKKGPQASQIFITYICNEDCYLAGILELQSAPSAETFVATEDSKGGHPSSSETKEEQNKEDGTFPGLTGTLKFCPLEKAQKLWKENPSEIYPIMNTTTRTRLALIICNTEFQHLSPRVGAQVDLREMKLLLEDLGYTVKVKENLTALEMVKEVKEFAACPEHKTSDSTFLVFMSHGIQEGICGTTYSNEVSDILKVDTIFQMMNTLKCPSLKDKPKVIIIQACRGEKQGVVLLKDSVRDSEEDFLTDAIFEDDGIKKAHIEKDFIAFCSSTPDNVSWRHPVRGSLFIESLIKHMKEYAWSCDLEDIFRKVRFSFEQPEFRLQMPTADRVTLTKRFYLFPGH
As for B3, the binding result in experiment [4] is reported as “binds”.
